Data published in paper PMC4894971.
No constants are given. Whether binding was seen depends on the method and setting. In cells and extracts the contact can be indirect. Some binding calls cover weakened binding; strength is not graded here.

Chains of the proteins cited; added tags and fusions are not shown. Lines headed by an entry give the natural chain unless they say otherwise; changes in a name come on top. A line that says so, or that is headed by a name, gives the form on record, which may keep a tag or linker.
UniProt Q3TKT4: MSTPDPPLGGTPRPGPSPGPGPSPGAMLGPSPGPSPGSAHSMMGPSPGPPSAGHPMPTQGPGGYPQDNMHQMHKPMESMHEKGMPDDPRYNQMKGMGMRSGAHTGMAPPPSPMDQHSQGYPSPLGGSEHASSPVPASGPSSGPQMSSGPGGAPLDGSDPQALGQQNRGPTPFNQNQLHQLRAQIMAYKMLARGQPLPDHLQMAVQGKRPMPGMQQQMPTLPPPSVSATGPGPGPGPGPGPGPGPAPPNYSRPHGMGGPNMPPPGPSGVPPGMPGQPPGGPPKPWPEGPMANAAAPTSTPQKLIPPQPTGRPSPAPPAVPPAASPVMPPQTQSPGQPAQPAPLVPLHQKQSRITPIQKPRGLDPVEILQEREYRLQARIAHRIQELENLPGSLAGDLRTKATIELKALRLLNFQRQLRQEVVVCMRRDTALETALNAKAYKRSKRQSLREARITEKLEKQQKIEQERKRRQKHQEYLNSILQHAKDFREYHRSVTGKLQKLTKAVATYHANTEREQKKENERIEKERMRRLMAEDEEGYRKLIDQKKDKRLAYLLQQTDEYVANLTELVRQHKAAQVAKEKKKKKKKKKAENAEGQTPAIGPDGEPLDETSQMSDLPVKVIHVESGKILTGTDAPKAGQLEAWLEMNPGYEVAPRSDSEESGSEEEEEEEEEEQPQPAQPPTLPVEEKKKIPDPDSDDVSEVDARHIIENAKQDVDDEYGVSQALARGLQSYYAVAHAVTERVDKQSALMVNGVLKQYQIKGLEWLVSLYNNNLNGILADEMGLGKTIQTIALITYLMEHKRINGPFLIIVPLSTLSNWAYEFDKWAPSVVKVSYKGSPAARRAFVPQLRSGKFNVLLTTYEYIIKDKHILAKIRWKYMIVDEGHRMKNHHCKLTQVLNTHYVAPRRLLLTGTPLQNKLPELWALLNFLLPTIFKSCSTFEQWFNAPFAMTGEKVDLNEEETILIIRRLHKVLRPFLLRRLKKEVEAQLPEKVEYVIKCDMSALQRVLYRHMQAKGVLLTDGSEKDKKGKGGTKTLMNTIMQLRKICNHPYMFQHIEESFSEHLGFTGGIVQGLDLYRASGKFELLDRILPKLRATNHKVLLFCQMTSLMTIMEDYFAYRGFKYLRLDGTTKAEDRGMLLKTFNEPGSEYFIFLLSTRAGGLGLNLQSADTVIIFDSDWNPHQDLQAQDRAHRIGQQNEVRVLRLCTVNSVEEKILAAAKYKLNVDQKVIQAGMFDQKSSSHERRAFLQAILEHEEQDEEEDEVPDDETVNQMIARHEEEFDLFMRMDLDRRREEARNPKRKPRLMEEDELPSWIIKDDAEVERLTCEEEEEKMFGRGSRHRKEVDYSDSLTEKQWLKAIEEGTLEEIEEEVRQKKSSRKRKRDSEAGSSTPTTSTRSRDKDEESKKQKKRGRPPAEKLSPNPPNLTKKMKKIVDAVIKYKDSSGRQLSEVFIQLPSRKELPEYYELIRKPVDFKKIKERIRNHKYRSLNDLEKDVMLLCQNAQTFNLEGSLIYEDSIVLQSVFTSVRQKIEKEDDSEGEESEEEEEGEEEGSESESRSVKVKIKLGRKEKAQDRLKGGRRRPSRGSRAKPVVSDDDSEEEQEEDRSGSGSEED
UniProt Q99MR0: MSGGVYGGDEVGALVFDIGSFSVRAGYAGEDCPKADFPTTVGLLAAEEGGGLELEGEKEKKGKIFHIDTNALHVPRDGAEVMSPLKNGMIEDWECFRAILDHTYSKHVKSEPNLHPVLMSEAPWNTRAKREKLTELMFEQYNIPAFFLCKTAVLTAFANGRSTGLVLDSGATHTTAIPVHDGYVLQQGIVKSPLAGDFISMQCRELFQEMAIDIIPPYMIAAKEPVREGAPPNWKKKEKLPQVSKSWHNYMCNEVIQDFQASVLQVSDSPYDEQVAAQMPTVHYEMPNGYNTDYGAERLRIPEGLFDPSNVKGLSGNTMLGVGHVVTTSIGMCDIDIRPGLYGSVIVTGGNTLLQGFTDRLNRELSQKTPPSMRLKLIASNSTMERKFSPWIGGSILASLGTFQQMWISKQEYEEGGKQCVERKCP
BAF53bΔHD (Q99MR0, form named): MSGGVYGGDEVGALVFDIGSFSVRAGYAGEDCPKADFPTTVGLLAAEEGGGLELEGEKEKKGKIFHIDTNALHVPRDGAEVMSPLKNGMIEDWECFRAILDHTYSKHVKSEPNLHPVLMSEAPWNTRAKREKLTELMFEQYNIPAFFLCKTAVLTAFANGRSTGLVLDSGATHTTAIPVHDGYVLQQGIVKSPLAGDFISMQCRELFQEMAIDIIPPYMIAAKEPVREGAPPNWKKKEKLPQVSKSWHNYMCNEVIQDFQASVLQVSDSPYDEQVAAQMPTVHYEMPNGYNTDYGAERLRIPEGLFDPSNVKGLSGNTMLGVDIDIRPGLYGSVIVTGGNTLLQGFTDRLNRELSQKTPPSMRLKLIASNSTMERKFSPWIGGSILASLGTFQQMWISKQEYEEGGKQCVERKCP

Biological target: Brg1 (mouse (endogenous in HT22)) (UniProt Q3TKT4)
Assay: co-IP; immunoprecipitation against Brg1 (1 ug antibody ab70558) from TPER lysates of HT22 cells harvested 48 h after transfection with empty vector, WT Baf53b or Baf53bΔHD; western blots probed for BAF53b and Brg1

BAF53b (wild type) (from UniProt Q99MR0 1-426)
binding: binds

BAF53bΔHD (from UniProt Q99MR0 1-426)
binding: binds
